Data as given in PubChem BioAssay AID1508597 (Cure First, 2020)
The deposit covers about 2,100 reagents; shown is an unselected part. 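Calls flag viability under 80% in either arm, not effects specific to rucaparib; the reference for percent is not stated.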 Not stated in the record: the 100% reference.

- Assay: 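Survival screen with siRNA in ovarian cancer cells derived from patients, with or without rucaparib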 (primary screen)
- Cell system: human ovarian carcinoma lines grown from tumours: OCI-P5x (papillary serous) and OCI-C5x (clear cell)
- Knock-down reagent: siRNA pool against human genes, 1.25 pmol siRNA per well
- Duration: 72 h or 96 h, depending on the cell culture
- Challenge: rucaparib 20 µM (about IC30) or vehicle, present until read-out
- Detection: 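ATP luminescence measured at 72 or 96 h according to the culture, then normalised and expressed as percent viability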
- Reading the numbers: viability, normalised: higher = more viable cells remaining
- Rule for the call: 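a well counts as a hit if its normalised viability is under 80 percent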
- Calls: active = viability under 80%; inactive = viability 80% or more

| viability, normalised (%) | Outcome | gene | rucaparib or vehicle | cell line | technical replicate |
| --- | --- | --- | --- | --- | --- |
| 81.9 | inactive | MAP2K6 | Rucaparib | OCI-C5x (clear cell) | 1 |
| 71.1 | active | MAP2K6 | Rucaparib | OCI-C5x (clear cell) | 2 |
| 75.4 | active | MAP2K6 | Rucaparib | OCI-C5x (clear cell) | 3 |
| 100 | inactive | MAP2K6 | Rucaparib | OCI-P5x (serous) | 1 |
| 102 | inactive | MAP2K6 | Rucaparib | OCI-P5x (serous) | 2 |
| 87.2 | inactive | MAP2K6 | Rucaparib | OCI-P5x (serous) | 3 |
| 87.3 | inactive | MAP2K6 | Vehicle | OCI-C5x (clear cell) | 1 |
| 82.1 | inactive | MAP2K6 | Vehicle | OCI-C5x (clear cell) | 2 |
| 66.8 | active | MAP2K6 | Vehicle | OCI-C5x (clear cell) | 3 |
| 105 | inactive | MAP2K6 | Vehicle | OCI-P5x (serous) | 1 |
| 95.5 | inactive | MAP2K6 | Vehicle | OCI-P5x (serous) | 2 |
| 95.1 | inactive | MAP2K6 | Vehicle | OCI-P5x (serous) | 3 |
| 45 | active | CDK11B | Rucaparib | OCI-C5x (clear cell) | 1 |
| 51.3 | active | CDK11B | Rucaparib | OCI-C5x (clear cell) | 2 |
| 54.9 | active | CDK11B | Rucaparib | OCI-C5x (clear cell) | 3 |
| 93.9 | inactive | CDK11B | Rucaparib | OCI-P5x (serous) | 1 |
| 93.8 | inactive | CDK11B | Rucaparib | OCI-P5x (serous) | 2 |
| 100 | inactive | CDK11B | Rucaparib | OCI-P5x (serous) | 3 |
| 46.5 | active | CDK11B | Vehicle | OCI-C5x (clear cell) | 1 |
| 45.5 | active | CDK11B | Vehicle | OCI-C5x (clear cell) | 2 |
| 39.9 | active | CDK11B | Vehicle | OCI-C5x (clear cell) | 3 |
| 84.1 | inactive | CDK11B | Vehicle | OCI-P5x (serous) | 1 |
| 94.1 | inactive | CDK11B | Vehicle | OCI-P5x (serous) | 2 |
| 92.9 | inactive | CDK11B | Vehicle | OCI-P5x (serous) | 3 |
| 43.2 | active | FMN2 | Rucaparib | OCI-C5x (clear cell) | 1 |
| 39.2 | active | FMN2 | Rucaparib | OCI-C5x (clear cell) | 2 |
| 42.3 | active | FMN2 | Rucaparib | OCI-C5x (clear cell) | 3 |
| 56.1 | active | FMN2 | Rucaparib | OCI-P5x (serous) | 1 |
| 68.7 | active | FMN2 | Rucaparib | OCI-P5x (serous) | 2 |
| 60.3 | active | FMN2 | Rucaparib | OCI-P5x (serous) | 3 |
| 38.7 | active | FMN2 | Vehicle | OCI-C5x (clear cell) | 1 |
| 57.6 | active | FMN2 | Vehicle | OCI-C5x (clear cell) | 2 |
| 39.9 | active | FMN2 | Vehicle | OCI-C5x (clear cell) | 3 |
| 60.4 | active | FMN2 | Vehicle | OCI-P5x (serous) | 1 |
| 49.3 | active | FMN2 | Vehicle | OCI-P5x (serous) | 2 |
| 55.2 | active | FMN2 | Vehicle | OCI-P5x (serous) | 3 |

7 successive reagents from above:
| viability, normalised (%) | Outcome | gene | rucaparib or vehicle | cell line | technical replicate |
| --- | --- | --- | --- | --- | --- |
| 68.7 | active | FMN2 | Rucaparib | OCI-P5x (serous) | 2 |
| 60.3 | active | FMN2 | Rucaparib | OCI-P5x (serous) | 3 |
| 38.7 | active | FMN2 | Vehicle | OCI-C5x (clear cell) | 1 |
| 57.6 | active | FMN2 | Vehicle | OCI-C5x (clear cell) | 2 |
| 39.9 | active | FMN2 | Vehicle | OCI-C5x (clear cell) | 3 |
| 60.4 | active | FMN2 | Vehicle | OCI-P5x (serous) | 1 |
| 49.3 | active | FMN2 | Vehicle | OCI-P5x (serous) | 2 |

Continued.
| viability, normalised (%) | Outcome | gene | rucaparib or vehicle | cell line | technical replicate |
| --- | --- | --- | --- | --- | --- |
| 26.6 | active | PIAS1 | Rucaparib | OCI-C5x (clear cell) | 1 |
| 23.6 | active | PIAS1 | Rucaparib | OCI-C5x (clear cell) | 2 |
| 18.9 | active | PIAS1 | Rucaparib | OCI-C5x (clear cell) | 3 |
| 32 | active | PIAS1 | Rucaparib | OCI-P5x (serous) | 1 |
| 32.7 | active | PIAS1 | Rucaparib | OCI-P5x (serous) | 2 |
| 31.8 | active | PIAS1 | Rucaparib | OCI-P5x (serous) | 3 |
| 22.9 | active | PIAS1 | Vehicle | OCI-C5x (clear cell) | 1 |
| 18.3 | active | PIAS1 | Vehicle | OCI-C5x (clear cell) | 2 |
| 20.3 | active | PIAS1 | Vehicle | OCI-C5x (clear cell) | 3 |
| 35.9 | active | PIAS1 | Vehicle | OCI-P5x (serous) | 1 |
| 39 | active | PIAS1 | Vehicle | OCI-P5x (serous) | 2 |
| 63.9 | active | PIAS1 | Vehicle | OCI-P5x (serous) | 3 |
| 31.2 | active | UBE2V2 | Rucaparib | OCI-C5x (clear cell) | 1 |
| 38.7 | active | UBE2V2 | Rucaparib | OCI-C5x (clear cell) | 2 |
| 44.2 | active | UBE2V2 | Rucaparib | OCI-C5x (clear cell) | 3 |
| 99.7 | inactive | UBE2V2 | Rucaparib | OCI-P5x (serous) | 1 |
| 89.4 | inactive | UBE2V2 | Rucaparib | OCI-P5x (serous) | 2 |
| 83.8 | inactive | UBE2V2 | Rucaparib | OCI-P5x (serous) | 3 |
| 50.7 | active | UBE2V2 | Vehicle | OCI-C5x (clear cell) | 1 |
| 56 | active | UBE2V2 | Vehicle | OCI-C5x (clear cell) | 2 |
| 52.6 | active | UBE2V2 | Vehicle | OCI-C5x (clear cell) | 3 |
| 70.4 | active | UBE2V2 | Vehicle | OCI-P5x (serous) | 1 |
| 91 | inactive | UBE2V2 | Vehicle | OCI-P5x (serous) | 2 |
| 75.4 | active | UBE2V2 | Vehicle | OCI-P5x (serous) | 3 |
